PubChem BioAssay AID1259425 | University of Nebraska Medical Center – 2018

Assay: 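Seek colon cancer weak points whose silencing resembles KSR1 loss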 (primary screen)
System: HCT116 human colon cancer cells
Reagent: siRNA pool against human genes, 50 nM siRNA
Detection: 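After 50 nM siRNA pool, branched-DNA assay measures six marker transcripts per well, minus blank, normalised to the geometric mean of two housekeeping transcripts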
Reading the numbers: BNIP3L mRNA: higher = more BNIP3L transcript after knockdown
The deposit covers about 14,000 reagents; this is an unselected part. Further read-outs or replicates are left out here. The record does not give: the time to read-out.

target | BNIP3L mRNA, set 1
PON3 (paraoxonase 3) | 0.112
TTC38 (tetratricopeptide repeat domain 38) | 0.139
RNF31 (ring finger protein 31) | 0.0706
GNAZ (G protein subunit alpha z) | 0.106
PLG (plasminogen) | 0.0947
MFAP5 (microfibril associated protein 5) | 0.0727
GATA3 (GATA binding protein 3) | 0.0411
DYNC1I2 (dynein cytoplasmic 1 intermediate chain 2) | 0.105
ACO1 (aconitase 1) | 0.131
LRRC7 (leucine rich repeat containing 7) | 0.21
HGD (homogentisate 1,2-dioxygenase) | 0.0617
PTGER4 (prostaglandin E receptor 4) | 0.0897
FOXC2 (forkhead box C2) | 0.156
GCH1 (GTP cyclohydrolase 1) | 0.152
GLYR1 (glyoxylate reductase 1 homolog) | 0.0881
CDC50A (cell division cycle 50 P4-ATPase accessory subunit A) | 0.0772
MTARC2 (mitochondrial amidoxime reducing component 2) | 0.0501
PITPNM1 (phosphatidylinositol transfer protein membrane associated 1) | 0.0631
CHRD (chordin) | 0.102
TWIST1 (twist family bHLH transcription factor 1) | 0.0945
ITSN2 (intersectin 2) | 0.327
TIMM21 (translocase of inner mitochondrial membrane 21) | 0.141
ANAPC13 (anaphase promoting complex subunit 13) | 0.127
MUTYH (mutY DNA glycosylase) | 0.102
KIR3DL1 | 0.0804
CADM3 (cell adhesion molecule 3) | 0.0727
MRPL41 (mitochondrial ribosomal protein L41) | 0.112
HNRNPUL1 (heterogeneous nuclear ribonucleoprotein U like 1) | 0.247
LY75 (lymphocyte antigen 75) | 0.14
FOXP1 (forkhead box P1) | 0.0903
FGF11 (fibroblast growth factor 11) | 0.156
PRDM7 (PR/SET domain 7) | 0.0789
GULP1 (GULP PTB domain containing engulfment adaptor 1) | 0.0798
ZNF536 (zinc finger protein 536) | 0.163
TYW2 (tRNA wybutosine-synthesizing protein 2) | 0.0781
GINS2 (GINS complex subunit 2) | 0.109
PROSER1 (proline and serine rich 1) | 0.0579
GDI2 (GDP dissociation inhibitor 2) | 0.0607
HERC2 (HECT and RLD domain containing E3 ubiquitin protein ligase 2) | 0.074
NTAQ1 (N-terminal glutamine amidase 1) | 0.113
DPY30 (dpy-30 histone methyltransferase complex regulatory subunit) | 0.0782
CCDC3 (coiled-coil domain containing 3) | 0.17
UHRF1 (ubiquitin like with PHD and ring finger domains 1) | 0.0844
NUAK1 (NUAK family kinase 1) | 0.222
RPL36 (ribosomal protein L36) | 0.174
RPLP1 (ribosomal protein lateral stalk subunit P1) | 0.0765
GSC2 (goosecoid homeobox 2) | 0.184
MAS1 (MAS1 proto-oncogene, G protein-coupled receptor) | 0.122
ZXDA (zinc finger X-linked duplicated A) | 0.248
XG (Xg glycoprotein (Xg blood group)) | 0.0501

4 entries from above, ordered by “BNIP3L mRNA, set 1”, descending.
target | BNIP3L mRNA, set 1
HNRNPUL1 (heterogeneous nuclear ribonucleoprotein U like 1) | 0.247
LY75 (lymphocyte antigen 75) | 0.14
MRPL41 (mitochondrial ribosomal protein L41) | 0.112
CADM3 (cell adhesion molecule 3) | 0.0727
